Measurements as given in paper PMC8693039.

Amino acid sequences for entries named in this document (tags omitted). A change or cut given only in a name is not applied to a line headed by its entry. Residues count along the entry.
UniProt P19338, whole entry: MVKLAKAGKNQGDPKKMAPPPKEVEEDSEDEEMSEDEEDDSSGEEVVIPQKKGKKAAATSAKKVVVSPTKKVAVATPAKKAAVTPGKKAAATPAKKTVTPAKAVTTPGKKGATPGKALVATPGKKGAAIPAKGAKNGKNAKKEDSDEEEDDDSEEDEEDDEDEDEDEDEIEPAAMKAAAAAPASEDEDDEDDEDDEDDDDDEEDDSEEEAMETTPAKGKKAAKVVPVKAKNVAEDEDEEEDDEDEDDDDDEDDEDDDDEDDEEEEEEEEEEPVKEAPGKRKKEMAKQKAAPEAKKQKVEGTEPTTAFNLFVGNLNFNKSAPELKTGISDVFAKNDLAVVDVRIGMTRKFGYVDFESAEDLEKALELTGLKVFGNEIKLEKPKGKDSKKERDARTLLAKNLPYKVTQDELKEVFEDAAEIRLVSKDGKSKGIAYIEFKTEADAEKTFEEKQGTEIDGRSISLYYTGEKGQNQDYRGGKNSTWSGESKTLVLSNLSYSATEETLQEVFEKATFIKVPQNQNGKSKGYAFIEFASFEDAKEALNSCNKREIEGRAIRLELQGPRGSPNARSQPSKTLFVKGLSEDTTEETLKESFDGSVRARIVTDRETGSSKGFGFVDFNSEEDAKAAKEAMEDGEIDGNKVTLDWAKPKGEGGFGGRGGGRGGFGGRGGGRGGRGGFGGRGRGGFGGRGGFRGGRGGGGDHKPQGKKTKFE
UniProt P16422, 24-314: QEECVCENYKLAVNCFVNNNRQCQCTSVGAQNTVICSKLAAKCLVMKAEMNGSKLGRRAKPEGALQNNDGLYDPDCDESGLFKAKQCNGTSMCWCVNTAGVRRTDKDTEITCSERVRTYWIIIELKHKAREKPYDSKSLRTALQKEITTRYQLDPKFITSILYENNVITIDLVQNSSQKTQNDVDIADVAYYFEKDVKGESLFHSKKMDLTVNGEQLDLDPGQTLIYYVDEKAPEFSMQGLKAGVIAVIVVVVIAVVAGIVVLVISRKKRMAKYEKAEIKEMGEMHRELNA
UniProt Q04609: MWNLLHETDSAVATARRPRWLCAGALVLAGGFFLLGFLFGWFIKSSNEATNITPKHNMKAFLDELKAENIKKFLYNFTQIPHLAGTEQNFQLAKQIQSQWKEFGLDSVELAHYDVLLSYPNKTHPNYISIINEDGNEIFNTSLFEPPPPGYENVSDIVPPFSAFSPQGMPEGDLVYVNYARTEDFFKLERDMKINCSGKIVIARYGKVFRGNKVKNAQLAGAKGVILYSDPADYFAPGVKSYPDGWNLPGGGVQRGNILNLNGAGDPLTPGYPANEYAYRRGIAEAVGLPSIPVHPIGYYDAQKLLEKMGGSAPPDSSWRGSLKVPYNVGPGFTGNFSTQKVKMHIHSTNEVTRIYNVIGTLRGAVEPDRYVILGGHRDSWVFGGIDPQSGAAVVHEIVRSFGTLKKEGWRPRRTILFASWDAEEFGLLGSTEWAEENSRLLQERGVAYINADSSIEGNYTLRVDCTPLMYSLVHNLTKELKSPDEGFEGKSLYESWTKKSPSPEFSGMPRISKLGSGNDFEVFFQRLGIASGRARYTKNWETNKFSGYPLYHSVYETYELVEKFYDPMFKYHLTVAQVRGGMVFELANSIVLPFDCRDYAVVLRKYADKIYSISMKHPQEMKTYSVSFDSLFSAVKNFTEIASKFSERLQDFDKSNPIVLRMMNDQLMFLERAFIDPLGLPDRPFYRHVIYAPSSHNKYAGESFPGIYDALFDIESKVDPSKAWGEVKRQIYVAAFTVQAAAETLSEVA

Assays:
[1] = target: nucleolin (NCL) (human (LNCaP cells)) (UniProt P19338); experiment: cell immunofluorescence imaging; conditions: LNCaP, co-staining, fluorescence intensity 4429.0 +/- 233.5; 5'-NH2C7 amide-coupled to carbon nanodot; CyTOF titration: fixed LNCaP cells, probe 30 min at room temperature, CSB washes; slide imaging: 0.1% Triton X-100 permeabilized, 3% BSA/PBS block, probe overnight at 4 C; native protein; label: G-Cdots(165Ho); folded or branched DNA
[2] = target: EpCAM (epithelial cell adhesion molecule) (human (LNCaP cells)) (UniProt P16422); experiment: cell immunofluorescence imaging; conditions: LNCaP, co-staining, fluorescence intensity 4865.3 +/- 225.1; 5'-NH2C7 amide-coupled to carbon nanodot; CyTOF titration: fixed LNCaP cells, probe 30 min at room temperature, CSB washes; slide imaging: 0.1% Triton X-100 permeabilized, 3% BSA/PBS block, probe overnight at 4 C; protein on the cell surface; label: R-Cdots(169Tm); folded or branched DNA
[3] = target: PSMA (prostate-specific membrane antigen) (human (LNCaP cells)) (UniProt Q04609); experiment: mass cytometry titration on LNCaP cells; fluorescence and mass imaging vs PC-3; conditions: saturation curve, 148-4736 ng/mL, stronger on LNCaP than PSMA-negative PC-3; 5'-NH2C7 amide-coupled to carbon nanodot; other modifications not stated; CyTOF titration: fixed LNCaP cells, probe 30 min at room temperature, CSB washes; slide imaging: 0.1% Triton X-100 permeabilized, 3% BSA/PBS block, probe overnight at 4 C; protein on the cell surface; label: B-Cdots(165Ho)
[4] = target: EpCAM (epithelial cell adhesion molecule) (human (LNCaP cells)) (UniProt P16422); experiment: cell fluorescence and mass imaging; conditions: 5'-NH2C7 amide-coupled to carbon nanodot, CyTOF titration: fixed LNCaP cells, probe 30 min at room temperature, CSB washes, slide imaging: 0.1% Triton X-100 permeabilized, 3% BSA/PBS block, probe overnight at 4 C, protein on the cell surface, label: B-Cdots(165Ho), folded or branched DNA
[5] = target: nucleolin (NCL) (human (LNCaP cells)) (UniProt P19338); experiment: cell fluorescence and mass imaging; conditions: 5'-NH2C7 amide-coupled to carbon nanodot, CyTOF titration: fixed LNCaP cells, probe 30 min at room temperature, CSB washes, slide imaging: 0.1% Triton X-100 permeabilized, 3% BSA/PBS block, probe overnight at 4 C, native protein, label: B-Cdots(165Ho), folded or branched DNA
[6] = target: PSMA (prostate-specific membrane antigen) (human (LNCaP cells)) (UniProt Q04609); experiment: cell immunofluorescence imaging; conditions: CyTOF titration: fixed LNCaP cells, probe 30 min at room temperature, CSB washes, slide imaging: 0.1% Triton X-100 permeabilized, 3% BSA/PBS block, probe overnight at 4 C, protein on the cell surface

Q: Does “GGTGGTGGTGGTTGTGGTGGTGGTGGTTTTTT [G-Cdots(165Ho)-AS1411]” bind [1]?
A: Result: binds

Q: Does “CACTACAGAGGTTGCGTCTGTCCCACGTTGTCATGGGGGGTTGGCCTG [R-Cdots(169Tm)-SYL3C]” bind [2]?
A: Result: binds

Q: Does “GGGAGGACGAUGCGGAUCAGCCAUGUUUACGUCACUCCU [B-Cdots(165Ho)-A10-3.2]” bind [3]?
A: Result: binds

Q: Does “CACTACAGAGGTTGCGTCTGTCCCACGTTGTCATGGGGGGTTGGCCTG [B-Cdots(165Ho)-SYL3C]” bind [4]?
A: Result: binds

Q: Does “GGTGGTGGTGGTTGTGGTGGTGGTGGTTTTTT [B-Cdots(165Ho)-AS1411]” bind [5]?
A: Result: binds

Q: Does “GGGAGGACGAUGCGGAUCAGCCAUGUUUACGUCACUCCU [B-Cdots(159Tb)-A10-3.2]” bind ([6]; LNCaP, co-staining, fluorescence intensity 9446.8 +/- 406.4, 5'-NH2C7 amide-coupled to carbon nanodot, other modifications not stated, label: B-Cdots(159Tb))?
A: Result: binds

Q: Does “GGGAGGACGAUGCGGAUCAGCCAUGUUUACGUCACUCCU [Cy5.5-A10-3.2]” bind ([6]; control probe on LNCaP and PC-3, label: Cy5.5)?
A: Result: binds

The exact form of at least one protein or probe is not confirmed. For some of these results: Where cells or extracts were used, other partners may take part. For some of these results: At least one verdict rests on a figure or table, not on a statement of the authors.
